Experimental data: PubChem BioAssay AID504774 (Drosophila RNAi Screening Center, 2011)

- Aim: 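Genes required for cells to withstand methyl methanesulphonate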 (primary screen)
- Cells: Drosophila Kc167 cells
- Reagent: long dsRNA against Drosophila genes, about 0.25 µg dsRNA per well
- Timing: about 6 days: 3 days knock-down, then 3 days with or without MMS
- Treatment: methyl methanesulphonate 0.004% (w/v) for 3 days after knock-down
- Detection: 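ATP-dependent luminescence as a measure of live cells in MMS-exposed wells, quantile normalised within each plate, with replicate values also given as a mean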
- Reading the numbers: mean viability with MMS: higher = more surviving cells after MMS
In all, the deposit lists about 23,000 reagents; shown is an unselected part of those with a known target gene and a result. 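Values are quantile-normalised luminescence on an arbitrary scale; higher means more cells surviving MMS.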 Further read-outs or replicates are left out here.

Depletion of Picot [DRSC07508] came out at: mean viability with MMS 3.51e6.
Atg3 [DRSC10736] scored mean viability with MMS 3.57e6.
With knock-down of Atg3 [DRSC21758], the screen gave mean viability with MMS 3.72e6.
Against Targ1 [DRSC11616], the values are mean viability with MMS 3.57e6.

Records listed so far whose target name begins with A or a (2):
Atg3 [DRSC10736] | mean viability with MMS: 3.57e6
Atg3 [DRSC21758] | mean viability with MMS: 3.72e6

Next reagents follow.
After knock-down of Pka-C3 [DRSC09402] the results were mean viability with MMS 3.76e6.
Knock-down of Pka-C3 [DRSC11254] came out at: mean viability with MMS 3.32e6.
pds5 [DRSC06670] showed mean viability with MMS 3.46e6.
Knock-down of CG3104 [DRSC00567] resulted in: mean viability with MMS 3.34e6.
Against sls [DRSC08528] the deposit lists mean viability with MMS 3.57e6.
sls [DRSC08540] gave mean viability with MMS 3.58e6.
For sls [DRSC08670] the deposit lists mean viability with MMS 3.59e6.
CG5510 [DRSC15823] gave mean viability with MMS 3.67e6.
After knock-down of Mad [DRSC00759], the record shows mean viability with MMS 3.72e6.
After knock-down of CG3740 [DRSC18508], the record shows mean viability with MMS 3.37e6.
